Article PMC7604311, “Caprine Bactenecins as Promising Tools for Developing New Antimicrobial and Antitumor Drugs” (Frontiers in Cellular and Infection Microbiology, 2020)
Peptide text beside a SMILES is read from it.

Test system: human PBMC vs bacteria
Assay: Selectivity index SIh/b (human cells vs bacteria)

SMILES: CC[C@H](C)[C@H](NC(=O)[C@H](CCCNC(=N)N)NC(=O)[C@@H](NC(=O)[C@H](Cc1ccccc1)NC(=O)[C@@H]1CCCN1C(=O)[C@@H]1CCCN1C(=O)[C@@H]1CCCN1C(=O)[C@H](Cc1c[nH]cn1)NC(=O)[C@@H](NC(=O)[C@H](CCCNC(=N)N)NC(=O)[C@H](CCCNC(=N)N)NC(=O)[C@H](Cc1ccccc1)NC(=O)[C@@H]1CCCN1C(=O)[C@H](CC(C)C)NC(=O)[C@H](CCCNC(=N)N)NC(=O)[C@H](Cc1ccccc1)NC(=O)[C@@H](N)CCCNC(=N)N)[C@@H](C)CC)C(C)C)C(=O)N[C@@H](Cc1c[nH]cn1)C(=O)N1CCC[C@H]1C(=O)N1CCC[C@H]1C(=O)N1CCC[C@H]1C(=O)N[C@@H](Cc1ccccc1)C(=O)N[C@@H](Cc1ccc(O)cc1)C(=O)N[C@@H](CCCNC(=N)N)C(=O)N[C@@H](CCCNC(=N)N)C(=O)N[C@@H](Cc1ccccc1)C(=O)N[C@@H](CC(C)C)C(=O)O [ChBac3.4-1-COOH (rec)] (H-RFRLPFRRIHPPPFVRIHPPPFYRRFL-OH; N-terminus assumed)
- SIh/b IC50PBMC/GMIC (IC50 toward human PBMC divided by GMIC): 8.1
- SIh/b ratio to ChBac3.4 (ratio of SIh/b of the peptide to SIh/b of native ChBac3.4-NH2 (square brackets)): 2.0
